Data on two substances can be found in PMC7948961, “Proteomic identification and validation of novel interactions of the putative tumor suppressor PRELP with membrane proteins including IGFI-R and p75NTR” (The Journal of Biological Chemistry, 2021).

By UniProt entry, the sequences of proteins in these tests, tags left out. Residues count along the entry.
UniProt P08069, residues 31-1367: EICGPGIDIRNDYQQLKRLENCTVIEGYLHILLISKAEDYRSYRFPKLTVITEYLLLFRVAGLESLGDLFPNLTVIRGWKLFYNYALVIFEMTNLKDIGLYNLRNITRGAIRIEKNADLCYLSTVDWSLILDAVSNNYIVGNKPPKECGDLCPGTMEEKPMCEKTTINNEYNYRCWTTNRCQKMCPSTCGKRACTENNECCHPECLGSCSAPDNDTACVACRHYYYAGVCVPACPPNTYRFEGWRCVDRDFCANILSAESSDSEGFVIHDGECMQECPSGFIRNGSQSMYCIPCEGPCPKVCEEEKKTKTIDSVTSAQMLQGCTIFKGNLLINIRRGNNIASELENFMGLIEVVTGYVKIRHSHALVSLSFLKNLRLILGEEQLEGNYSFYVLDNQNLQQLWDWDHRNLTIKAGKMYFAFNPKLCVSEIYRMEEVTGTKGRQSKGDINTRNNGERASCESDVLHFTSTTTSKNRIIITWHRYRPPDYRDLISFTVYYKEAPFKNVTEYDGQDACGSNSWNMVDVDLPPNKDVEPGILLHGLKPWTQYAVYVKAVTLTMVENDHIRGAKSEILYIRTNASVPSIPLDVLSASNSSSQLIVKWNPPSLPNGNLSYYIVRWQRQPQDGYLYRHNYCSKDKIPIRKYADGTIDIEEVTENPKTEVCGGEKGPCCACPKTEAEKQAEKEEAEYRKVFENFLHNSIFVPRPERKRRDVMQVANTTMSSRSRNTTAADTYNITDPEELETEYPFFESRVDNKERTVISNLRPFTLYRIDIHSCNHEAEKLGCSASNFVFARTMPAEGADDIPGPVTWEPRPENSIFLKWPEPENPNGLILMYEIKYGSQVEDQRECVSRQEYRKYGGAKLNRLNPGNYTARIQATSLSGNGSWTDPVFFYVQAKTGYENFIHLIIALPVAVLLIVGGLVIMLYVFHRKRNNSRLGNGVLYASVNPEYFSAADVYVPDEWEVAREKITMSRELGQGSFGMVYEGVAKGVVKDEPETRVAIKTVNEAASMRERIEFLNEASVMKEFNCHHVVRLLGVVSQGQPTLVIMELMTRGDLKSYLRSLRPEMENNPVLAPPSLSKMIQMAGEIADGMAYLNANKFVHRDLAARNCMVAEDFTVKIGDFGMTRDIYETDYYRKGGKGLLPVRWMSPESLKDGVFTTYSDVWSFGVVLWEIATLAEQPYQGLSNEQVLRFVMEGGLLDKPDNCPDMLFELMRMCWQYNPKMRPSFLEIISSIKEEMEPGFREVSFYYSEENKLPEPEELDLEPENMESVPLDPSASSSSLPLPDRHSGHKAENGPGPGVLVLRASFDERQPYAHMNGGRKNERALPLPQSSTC
UniProt P08138, residues 29-427: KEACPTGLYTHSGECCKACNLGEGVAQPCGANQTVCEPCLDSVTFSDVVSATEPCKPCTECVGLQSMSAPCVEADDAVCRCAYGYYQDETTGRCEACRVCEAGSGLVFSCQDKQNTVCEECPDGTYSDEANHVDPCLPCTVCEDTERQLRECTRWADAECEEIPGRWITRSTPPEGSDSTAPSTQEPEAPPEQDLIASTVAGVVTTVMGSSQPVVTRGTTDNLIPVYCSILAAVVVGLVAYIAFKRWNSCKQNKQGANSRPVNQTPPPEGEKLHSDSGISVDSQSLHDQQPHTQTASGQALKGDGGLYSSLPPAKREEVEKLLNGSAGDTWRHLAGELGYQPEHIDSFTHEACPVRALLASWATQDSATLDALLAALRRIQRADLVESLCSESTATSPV

The test concerns the target T1, Human PRELP (proline and arginine-rich end leucine-rich repeat protein) with a C-terminal FLAG tag, overexpressed in Expi293 cells (human) (UniProt P51888).
T1 sequence: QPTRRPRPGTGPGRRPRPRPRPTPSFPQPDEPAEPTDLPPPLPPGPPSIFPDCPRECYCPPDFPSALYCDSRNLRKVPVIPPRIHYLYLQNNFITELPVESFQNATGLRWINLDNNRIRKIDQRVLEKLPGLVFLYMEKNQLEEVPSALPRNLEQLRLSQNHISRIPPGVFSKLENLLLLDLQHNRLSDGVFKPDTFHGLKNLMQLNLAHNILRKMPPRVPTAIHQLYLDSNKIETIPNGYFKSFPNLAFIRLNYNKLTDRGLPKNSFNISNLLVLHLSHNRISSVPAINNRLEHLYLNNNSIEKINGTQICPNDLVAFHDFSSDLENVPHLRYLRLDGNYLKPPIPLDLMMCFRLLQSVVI
The test is described as follows: co-IP; anti-FLAG (DDDDK) gel on DDM extract of the membrane fraction of Expi293 cells expressing PRELP-FLAG, eluates analysed by western blot with monoclonal antibodies to IGFI-R beta and p75NTR; control-transfected cells alongside. (In general: Immunoblotting shows a protein as a band on a membrane.)

These are yes or no findings as the source states them, for the method shown. In cells and extracts the contact can be indirect. Some entries that bind do so weakly or less than the wild type. Tags and fused reporters may be left off the sequences shown.

Take “Insulin-like growth factor 1 receptor (from UniProt P08069 31-1367)”: the binding result is “binds”.

On to “Low-affinity nerve growth factor receptor p75NTR (from UniProt P08138 29-427)”, for which the binding entry is on record as “binds”.
